In patent US20050119190A1, “Inhibitors of the blood-clotting factor xa, production thereof and use of the same” (priority 2002, published 2005):
The match of structure and compound is tentative.

Chains of the proteins cited; added tags and fusions are not shown. Residues count along the entry.
UniProt P00743, 234-492 limits assumed: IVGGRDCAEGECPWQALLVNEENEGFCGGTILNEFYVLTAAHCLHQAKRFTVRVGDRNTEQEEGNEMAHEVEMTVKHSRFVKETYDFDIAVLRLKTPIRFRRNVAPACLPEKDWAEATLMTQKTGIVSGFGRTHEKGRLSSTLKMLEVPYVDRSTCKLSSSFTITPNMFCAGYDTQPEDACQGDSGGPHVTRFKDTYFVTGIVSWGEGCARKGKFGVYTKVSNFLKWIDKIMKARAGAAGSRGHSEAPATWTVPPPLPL
UniProt P00743, 41-180 partner limits assumed: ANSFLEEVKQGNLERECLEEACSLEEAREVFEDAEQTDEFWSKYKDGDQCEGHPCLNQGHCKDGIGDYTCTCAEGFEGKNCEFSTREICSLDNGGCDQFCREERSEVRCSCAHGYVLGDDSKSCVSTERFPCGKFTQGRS

Target: F Xa (bovine) (Bos taurus, UniProt P00743)
Experiment: Inhibition of F Xa, Ki by the method of Dixon, chromogenic substrate Moc-D-Nle-Gly-Arg-pNA
Conditions: Example 4; inhibition of factor Xa by inhibitors of formula I

COC(=O)c1cccc(CS(=O)(=O)N[C@H](COC(C)(C)C)C(=O)NCC(=O)NCc2ccc(C(=N)N)cc2)c1
Ki: 0.18 µM
